We go through one molecule from paper PMC9221213.

These are yes or no findings as the source states them, for the method shown. Binding seen in cells or lysates may run through a third protein. Some entries that bind do so weakly or less than the wild type.

The target in this test is T1, Caveolin-1 (dog) (UniProt P33724).
T1 sequence: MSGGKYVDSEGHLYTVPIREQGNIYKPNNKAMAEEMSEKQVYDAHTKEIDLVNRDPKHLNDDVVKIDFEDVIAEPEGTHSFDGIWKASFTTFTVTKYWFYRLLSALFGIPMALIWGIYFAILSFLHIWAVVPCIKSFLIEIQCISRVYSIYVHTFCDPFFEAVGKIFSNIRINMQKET
The test can be described thus: co-IP; CAV1 immunoprecipitated with a polyclonal anti-CAV1 antibody (2.5 ug) from protein extracts (2 mg total protein) of B16F10(Mock) and B16F10(CAV1) cells; PTP1B detected by immunoblot.

B1: non-receptor protein tyrosine phosphatase type 1B (enzyme, UniProt P35821 1-432)
chain: MEMEKEFEEIDKAGNWAAIYQDIRHEASDFPCKVAKLPKNKNRNRYRDVSPFDHSRIKLHQEDNDYINASLIKMEEAQRSYILTQGPLPNTCGHFWEMVWEQKSRGVVMLNRIMEKGSLKCAQYWPQQEEKEMVFDDTGLKLTLISEDVKSYYTVRQLELENLTTKETREILHFHYTTWPDFGVPESPASFLNFLFKVRESGSLSLEHGPIVVHCSAGIGRSGTFCLADTCLLLMDKRKDPSSVDIKKVLLEMRRFRMGLIQTADQLRFSYLAVIEGAKFIMGDSSVQDQWKELSREDLDLPPEHVPPPPRPPKRTLEPHNGKCKELFSSHQWVSEETCGDEDSLAREEGRAQSSAMHSVSSMSPDTEVRRRMVGGGLQSAQASVPTEEELSSTEEEHKAHWPSHWKPFLVNVCMATLLATGAYLCYRVCFH
Consider B1, for which the binding entry is listed as “binds”.
